Results deposited as PubChem BioAssay AID1159584 (Peter MacCallum Cancer Centre, 2016)

- Aim: 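Knock-downs that harm CDH1-null cells more than parental MCF10A cells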 (primary screen)
- Cells: human MCF10A breast epithelial cells, parental and CDH1-null
- Knock-down reagent: siRNA against human genes
- Detection: 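Cell viability by CellTiter-Glo ATP luminescence, each line scaled to the mean of mock wells across plates, then CDH1-null over parental ratio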
- Reading the numbers: CDH1-null / parental viability ratio: higher = CDH1-null cells survive relatively better than parental; CDH1-null viability vs mock: higher = more viable CDH1-null cells
The whole screen tested about 18,000 reagents; this is a random part of them. Not all columns of the deposit are shown. Not stated in the record: the amount of reagent, the time to read-out.

Target gene | CDH1-null / parental viability ratio | CDH1-null viability vs mock (fraction of mock)
IL7 | 0.9 | 0.74
TLE2 | 0.8 | 0.66
EBF1 | 1.11 | 0.8
CRELD2 | 0.91 | 0.69
ST7L | 0.9 | 0.45
SPPL2A | 1.16 | 0.86
SSNA1 | 1.33 | 0.72
GRIA1 | 1.37 | 1.19
PHTF1 | 1.04 | 0.74
PI3 | 0.99 | 0.68
TM9SF3 | 0.92 | 0.68
MROH9 | 1.07 | 1.31
P3H4 | 1.06 | 0.57
PGK2 | 1.08 | 0.84
CCNG1 | 0.9 | 1.06
PLXDC1 | 1.43 | 0.73
PIP4P2 | 1.07 | 1.01
RGPD2 | 1.04 | 0.28
MATN3 | 1.17 | 0.7
SLC25A15 | 0.99 | 0.82
F10 | 1.1 | 0.68
PHAX | 0.95 | 0.69
ZNF22 | 0.78 | 0.8
ACAD10 | 0.92 | 0.72
SNRNP35 | 0.66 | 0.57
MAT2B | 0.91 | 0.91
SNX11 | 1.03 | 0.9
SLCO4C1 | 0.9 | 0.76

2 entries from above, set out differently:
{"Target gene":"PIP4P2","CDH1-null / parental viability ratio":1.07,"CDH1-null viability vs mock (fraction of mock)":1.01}
{"Target gene":"RGPD2","CDH1-null / parental viability ratio":1.04,"CDH1-null viability vs mock (fraction of mock)":0.28}
